Test results from US20170131257A1, “SYSTEMS AND METHODS OF REMOVING AND MANAGING HEAVY METALS” (priority 2007, published 2017).

System: Zebra Fish
Format: in vivo
Conditions: fed 6 days, N=4
Procedure: Following EPA Method 7473, a total of 44 Zebra fish were randomized into four one gallon tanks and fed an experimental or control diet for 6 days. On the seventh day the fish were not fed so that any food being digested would have been absorbed or eliminated. The fish were fed 1.0 gram of food twice a day the first day. On the second day the fish were fed 0.5 grams twice a day. On days 3-6 the fish were fed 0.5 gram once a day.
The control and experimental feed was prepared using:
9.8 g. Frozen Thawed Brine Shrimp
The corn starch and water were boiled for 2 minutes then mixed with the remaining ingredients. The basic food was divided into four groups. The study groups consisted of: the control (Group C), an experimental group in which phytic acid di-sodium salt was added to the feed at 5% by […] (Group A), an experimental group in which 15 μg mercuric iodide salt per gram of food was added (Group B), and lastly Group D in which fish were fed the above stated amounts of mercuric iodide salt and phytic acid di-sodium salt.
The analysis was conducted by a contracted company, Northwest Pacific Labs. Samples were stratified by treatment and randomly sampled. A test of atomic absorption was used to determine absorbed mercury, after calibrating the instrument.

| Structure (SMILES) | Total Hg Wet Weight, Mean (Group B: 15 micrograms mercuric iodide salt per gram food, no phytic acid) | Total Hg Wet Weight, Mean (Group A: phytic acid di-sodium salt 5% per wt. in feed, no mercury added) |
| --- | --- | --- |
| [I][Hg][I] [Mercury Iodide Salt, mercuric iodide salt, reference compound] | .1478 |  |
| O=P(O)(O)O[C@H]1[C@H](OP(=O)(O)O)[C@@H](OP(=O)(O)O)[C@H](OP(=O)(O)O)[C@@H](OP(=O)(O)O)[C@H]1OP(=O)(O)O [Phytic Acid, phytic acid] |  | .0621 |

Structures can show the parent of a compound that is named as a salt. Where two headings read alike, the source gives them in different places. Some values come without a unit; they compare only within their column.
